Measured values as given in article doi:10.1101/348953.
Results are given in words; binding and its absence hold for the method and conditions named. In cells and extracts the contact can be indirect. A yes stands for co-enrichment or nearness to the bait. Other partners may have been found.

Sequences of proteins named here, by UniProt entry; tags and fusion partners are left off. A change or cut given only in a name is not applied to a line headed by its entry.
UniProt P15116: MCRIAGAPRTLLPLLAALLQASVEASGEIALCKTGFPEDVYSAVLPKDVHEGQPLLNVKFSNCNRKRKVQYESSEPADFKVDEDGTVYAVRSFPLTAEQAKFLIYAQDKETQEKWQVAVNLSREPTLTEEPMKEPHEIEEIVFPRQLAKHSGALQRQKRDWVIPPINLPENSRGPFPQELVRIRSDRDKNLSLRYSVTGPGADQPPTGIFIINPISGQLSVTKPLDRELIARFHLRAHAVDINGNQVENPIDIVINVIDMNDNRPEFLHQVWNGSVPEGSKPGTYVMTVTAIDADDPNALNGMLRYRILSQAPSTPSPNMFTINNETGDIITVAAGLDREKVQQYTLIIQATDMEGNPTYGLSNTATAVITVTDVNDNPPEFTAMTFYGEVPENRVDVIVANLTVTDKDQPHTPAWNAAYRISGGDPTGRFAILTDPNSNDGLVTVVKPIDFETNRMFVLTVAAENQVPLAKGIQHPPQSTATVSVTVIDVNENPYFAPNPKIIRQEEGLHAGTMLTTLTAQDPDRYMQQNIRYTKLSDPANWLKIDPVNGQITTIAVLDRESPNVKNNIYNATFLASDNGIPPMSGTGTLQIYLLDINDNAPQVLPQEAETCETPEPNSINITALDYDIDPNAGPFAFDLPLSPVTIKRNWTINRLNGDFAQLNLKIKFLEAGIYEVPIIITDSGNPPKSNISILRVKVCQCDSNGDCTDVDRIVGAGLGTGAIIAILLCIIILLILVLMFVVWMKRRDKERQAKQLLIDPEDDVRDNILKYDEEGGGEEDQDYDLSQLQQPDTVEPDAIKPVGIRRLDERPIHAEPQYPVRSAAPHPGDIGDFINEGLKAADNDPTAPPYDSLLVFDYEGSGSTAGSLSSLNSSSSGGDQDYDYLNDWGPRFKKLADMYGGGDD

Molecular target: Cdh2-BioID2 (mouse N-cadherin with BioID2-HA fused to the C-terminal tail) (mouse) (UniProt P15116)
Assay: proximity labelling

Row | Binder | binding
1 | αT(Testes)-catenin (CTNNA3) (protein, UniProt Q65CL1 1-895) MSAETPITLNMDTQDLQIQTFTVEKLLEPLIIQVTTLVNCPQNPSNRKKGRSKRARVLLASVEEATWNLLDKGEMIAKEATVLKEELAAALQEVRKESKALKVSAERFTDDPCYLPKREAVVQAARALLAAVTRLLVLADMIDVMCLLQHVSSFQRTFESLKNVSNKSDLQRTYQKLGKELESLDYLAFKRQQDLKSPSQRDEIAGARATLKENSPLLHSICSACLEHSDVASLKASKDTVCEEIQNALDVISNASQGIQNAPAPPEPQAATLGSAFDELENLIVLNPLTVTEEDVRPSLEKRLEAIISGAALLADSSCTRDLHRERIIAECNAIRQALQDLLTEYMSNTGKTERSNTLNTAIVNMSKKTRDLRRQLRKAIIDHISDSFLDTTVPLLVLIEAAKNGRVKEIKDYAAIFHEHTGRLVEVANLACSMSTNEDGIKIVRIAANHLETLCPQIINAALALASRPKSQVVKNTMEMYKRTWEHYIHVLTEAVDDITSIDDFLAVSESHILEDVNKCIIALRDQDADNLDRAAGAIRGRAARVAHIVAGEMDSYEPGAYTEGVMRNVNFLTSTVIPEFVTQVNVALDALSKNSLTALDDNQFVDISKKIYDTIHDIRCSVMMIRTPEELEDVSDLEDDHEVRSHTSIQTEGKTDRAKMTQLPEAEKEKIAEQVADFKKVKSKLDAEIEIWDDTSNDIIVLAKKMCMIMMEMTDFTRGKGPLKHTTDVIYAAKMISESGSRMDVLARQIANQCPDPPCKQDLLAYLEQIKFYSHQLKICSQVKAEIQNLGGELIVSALDSVTSLIQAAKNLMNAVVQTVKMSYIASTKIIRIQSSAGPRHPVVMWRMKAPAKKPLIKREKPEETWAAVRRGSAKKKIHPVQVMSEFRGRQVY | binds
2 | p120-catenin (CTNND1) (protein, UniProt P30999 1-938) MDDSEVESTASILASVKEQEAQFEKLTRALEEERRHVSAQLERVRVSPQDANSLMANGTLTRRHQNGRFVGDADLERQKFSDLKLNGPQDHNHLLYSTIPRMQEPGQIVETYTEEDPEGAMSVVSVETTDDGTTRRTETTVKKVVKTMTTRTVQPVPMGPDGLPVDASAVSNNYIQTLGRDFRKNGNGGPGPYVGQAGTATLPRNFHYPPDGYGRHYEDGYPGGSDNYGSLSRVTRIEERYRPSMEGYRAPSRQDVYGPQPQVRVGGSSVDLHRFHPEPYGLEDDQRSMGYDDLDYGMMSDYGTARRTGTPSDPRRRLRSYEDMIGEEVPPDQYYWAPLAQHERGSLASLDSLRKGMPPPSNWRQPELPEVIAMLGFRLDAVKSNAAAYLQHLCYRNDKVKTDVRKLKGIPILVGLLDHPKKEVHLGACGALKNISFGRDQDNKIAIKNCDGVPALVRLLRKARDMDLTEVITGTLWNLSSHDSIKMEIVDHALHALTDEVIIPHSGWEREPNEDCKPRHIEWESVLTNTAGCLRNVSSERSEARRKLRECDGLVDALIFIVQAEIGQKDSDSKLVENCVCLLRNLSYQVHREIPQAERYQEALPTVANSTGPHAASCFGAKKGKDEWFSRGKKPTEDPANDTVDFPKRTSPARGYELLFQPEVVRIYISLLKESKTPAILEASAGAIQNLCAGRWTYGRYIRSALRQEKALSAIAELLTSEHERVVKAASGALRNLAVDARNKELIGKHAIPNLVKNLPGGQQNSSWNFSEDTVVSILNTINEVIAENLEAAKKLRETQGIEKLVLINKSGNRSEKEVRAAALVLQTIWGYKELRKPLEKEGWKKSDFQVNLNNASRSQSSHSYDDSTLPLIDRNQKSDKKPDREEIPMSNMGSNTKSLDNNYSTLNERGDHNRTLDRSGDLGDMEPLKGAPLMQKI | binds
